{"source": "PubChem BioAssay AID1259254 (NCATS, 2017)", "screen": "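Gene knock-downs that lead to re-replication, shown by excess G2 DNA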 (primary screen)", "cell system": "human HCT116 colorectal cancer cells", "reagent": "single siRNA against human genes", "duration": "3 days", "measured": "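Nuclei stained with Hoechst and imaged; cell-cycle phase assigned by DNA content; G2 share scaled per plate, non-targeting siRNA 0%, GMNN siRNA 100%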", "direction": "G2 robust z-score and G2 cells, % of GMNN control: higher = more G2 cells, more excess DNA replication", "active means": "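Active siRNAs have a G2 robust z of 5 or more median absolute deviations over the median, which in these data means about 38% or higher of GMNN control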", "note": "In all, the deposit lists about 59,000 reagents; below is a part drawn at random. Over the whole deposit, about 1,550 (2.6%) are marked active. 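G2 share is only a proxy for re-replication; each gene was hit by three separate siRNAs, and active genes were retested.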 Reagents against one gene are numbered here. Not all columns of the deposit are shown. Not stated in the record: the amount of reagent."}
{"gene": "RBMX (GeneID 27316)", "reagent no.": 1, "G2 robust z-score": 1.19, "G2 cells, % of GMNN control": 11.3, "activity call": "inactive"}
{"gene": "RBMX (GeneID 27316)", "reagent no.": 2, "G2 robust z-score": 1.26, "G2 cells, % of GMNN control": 11.9, "activity call": "inactive"}
{"gene": "RBMX (GeneID 27316)", "reagent no.": 3, "G2 robust z-score": -0.282, "G2 cells, % of GMNN control": 0.98, "activity call": "inactive"}
{"gene": "H2AC17 (GeneID 8336)", "reagent no.": 1, "G2 robust z-score": -0.19, "G2 cells, % of GMNN control": 1.63, "activity call": "inactive"}
{"gene": "H2AC17 (GeneID 8336)", "reagent no.": 2, "G2 robust z-score": 2.72, "G2 cells, % of GMNN control": 22.1, "activity call": "inactive"}
{"gene": "H2AC17 (GeneID 8336)", "reagent no.": 3, "G2 robust z-score": 0.83, "G2 cells, % of GMNN control": 8.81, "activity call": "inactive"}
{"gene": "HEBP2 (GeneID 23593)", "reagent no.": 1, "G2 robust z-score": 1.14, "G2 cells, % of GMNN control": 11, "activity call": "inactive"}
{"gene": "HEBP2 (GeneID 23593)", "reagent no.": 2, "G2 robust z-score": 4.6, "G2 cells, % of GMNN control": 35.3, "activity call": "inactive"}
{"gene": "HEBP2 (GeneID 23593)", "reagent no.": 3, "G2 robust z-score": -0.793, "G2 cells, % of GMNN control": -2.61, "activity call": "inactive"}
{"gene": "ZBED8L (GeneID 221786)", "reagent no.": 1, "G2 robust z-score": -0.498, "G2 cells, % of GMNN control": -0.536, "activity call": "inactive"}
{"gene": "ZBED8L (GeneID 221786)", "reagent no.": 2, "G2 robust z-score": 0.584, "G2 cells, % of GMNN control": 7.07, "activity call": "inactive"}
{"gene": "ZBED8L (GeneID 221786)", "reagent no.": 3, "G2 robust z-score": 0.357, "G2 cells, % of GMNN control": 5.48, "activity call": "inactive"}
{"gene": "CPEB2-DT (GeneID 441009)", "reagent no.": 1, "G2 robust z-score": -0.21, "G2 cells, % of GMNN control": 1.49, "activity call": "inactive"}
{"gene": "CPEB2-DT (GeneID 441009)", "reagent no.": 2, "G2 robust z-score": 0.0978, "G2 cells, % of GMNN control": 3.66, "activity call": "inactive"}
{"gene": "CPEB2-DT (GeneID 441009)", "reagent no.": 3, "G2 robust z-score": 0.753, "G2 cells, % of GMNN control": 8.26, "activity call": "inactive"}
{"gene": "CHD6 (GeneID 84181)", "reagent no.": 1, "G2 robust z-score": -0.82, "G2 cells, % of GMNN control": -2.8, "activity call": "inactive"}
{"gene": "CHD6 (GeneID 84181)", "reagent no.": 2, "G2 robust z-score": -0.311, "G2 cells, % of GMNN control": 0.776, "activity call": "inactive"}
{"gene": "CHD6 (GeneID 84181)", "reagent no.": 3, "G2 robust z-score": -0.353, "G2 cells, % of GMNN control": 0.486, "activity call": "inactive"}
{"gene": "PSMG3 (GeneID 84262)", "reagent no.": 1, "G2 robust z-score": -0.25, "G2 cells, % of GMNN control": 1.21, "activity call": "inactive"}
{"gene": "PSMG3 (GeneID 84262)", "reagent no.": 2, "G2 robust z-score": -0.691, "G2 cells, % of GMNN control": -1.89, "activity call": "inactive"}
{"gene": "PSMG3 (GeneID 84262)", "reagent no.": 3, "G2 robust z-score": -0.785, "G2 cells, % of GMNN control": -2.55, "activity call": "inactive"}
{"gene": "WNT2 (GeneID 7472)", "reagent no.": 1, "G2 robust z-score": 1.14, "G2 cells, % of GMNN control": 11, "activity call": "inactive"}
{"gene": "WNT2 (GeneID 7472)", "reagent no.": 2, "G2 robust z-score": 0.625, "G2 cells, % of GMNN control": 7.36, "activity call": "inactive"}
{"gene": "WNT2 (GeneID 7472)", "reagent no.": 3, "G2 robust z-score": 0.29, "G2 cells, % of GMNN control": 5.01, "activity call": "inactive"}
{"gene": "TGIF2LX (GeneID 90316)", "reagent no.": 1, "G2 robust z-score": -1.17, "G2 cells, % of GMNN control": -5.24, "activity call": "inactive"}
{"gene": "TGIF2LX (GeneID 90316)", "reagent no.": 2, "G2 robust z-score": 3.61, "G2 cells, % of GMNN control": 28.4, "activity call": "inactive"}
{"gene": "TGIF2LX (GeneID 90316)", "reagent no.": 3, "G2 robust z-score": 0.376, "G2 cells, % of GMNN control": 5.61, "activity call": "inactive"}
{"gene": "IGDCC3 (GeneID 9543)", "reagent no.": 1, "G2 robust z-score": -1.49, "G2 cells, % of GMNN control": -7.51, "activity call": "inactive"}
{"gene": "IGDCC3 (GeneID 9543)", "reagent no.": 2, "G2 robust z-score": -0.267, "G2 cells, % of GMNN control": 1.09, "activity call": "inactive"}
{"gene": "IGDCC3 (GeneID 9543)", "reagent no.": 3, "G2 robust z-score": 0.721, "G2 cells, % of GMNN control": 8.04, "activity call": "inactive"}

Ordered by “G2 cells, % of GMNN control” (lowest first): 3 of the entries above.
{"gene": "TGIF2LX (GeneID 90316)", "reagent no.": 1, "G2 robust z-score": -1.17, "G2 cells, % of GMNN control": -5.24, "activity call": "inactive"}
{"gene": "WNT2 (GeneID 7472)", "reagent no.": 3, "G2 robust z-score": 0.29, "G2 cells, % of GMNN control": 5.01, "activity call": "inactive"}
{"gene": "WNT2 (GeneID 7472)", "reagent no.": 2, "G2 robust z-score": 0.625, "G2 cells, % of GMNN control": 7.36, "activity call": "inactive"}
